We go through two molecules from paper PMC3897744.

Sequences of proteins named here, by UniProt entry; tags and fusion partners are left off.
UniProt Q99570: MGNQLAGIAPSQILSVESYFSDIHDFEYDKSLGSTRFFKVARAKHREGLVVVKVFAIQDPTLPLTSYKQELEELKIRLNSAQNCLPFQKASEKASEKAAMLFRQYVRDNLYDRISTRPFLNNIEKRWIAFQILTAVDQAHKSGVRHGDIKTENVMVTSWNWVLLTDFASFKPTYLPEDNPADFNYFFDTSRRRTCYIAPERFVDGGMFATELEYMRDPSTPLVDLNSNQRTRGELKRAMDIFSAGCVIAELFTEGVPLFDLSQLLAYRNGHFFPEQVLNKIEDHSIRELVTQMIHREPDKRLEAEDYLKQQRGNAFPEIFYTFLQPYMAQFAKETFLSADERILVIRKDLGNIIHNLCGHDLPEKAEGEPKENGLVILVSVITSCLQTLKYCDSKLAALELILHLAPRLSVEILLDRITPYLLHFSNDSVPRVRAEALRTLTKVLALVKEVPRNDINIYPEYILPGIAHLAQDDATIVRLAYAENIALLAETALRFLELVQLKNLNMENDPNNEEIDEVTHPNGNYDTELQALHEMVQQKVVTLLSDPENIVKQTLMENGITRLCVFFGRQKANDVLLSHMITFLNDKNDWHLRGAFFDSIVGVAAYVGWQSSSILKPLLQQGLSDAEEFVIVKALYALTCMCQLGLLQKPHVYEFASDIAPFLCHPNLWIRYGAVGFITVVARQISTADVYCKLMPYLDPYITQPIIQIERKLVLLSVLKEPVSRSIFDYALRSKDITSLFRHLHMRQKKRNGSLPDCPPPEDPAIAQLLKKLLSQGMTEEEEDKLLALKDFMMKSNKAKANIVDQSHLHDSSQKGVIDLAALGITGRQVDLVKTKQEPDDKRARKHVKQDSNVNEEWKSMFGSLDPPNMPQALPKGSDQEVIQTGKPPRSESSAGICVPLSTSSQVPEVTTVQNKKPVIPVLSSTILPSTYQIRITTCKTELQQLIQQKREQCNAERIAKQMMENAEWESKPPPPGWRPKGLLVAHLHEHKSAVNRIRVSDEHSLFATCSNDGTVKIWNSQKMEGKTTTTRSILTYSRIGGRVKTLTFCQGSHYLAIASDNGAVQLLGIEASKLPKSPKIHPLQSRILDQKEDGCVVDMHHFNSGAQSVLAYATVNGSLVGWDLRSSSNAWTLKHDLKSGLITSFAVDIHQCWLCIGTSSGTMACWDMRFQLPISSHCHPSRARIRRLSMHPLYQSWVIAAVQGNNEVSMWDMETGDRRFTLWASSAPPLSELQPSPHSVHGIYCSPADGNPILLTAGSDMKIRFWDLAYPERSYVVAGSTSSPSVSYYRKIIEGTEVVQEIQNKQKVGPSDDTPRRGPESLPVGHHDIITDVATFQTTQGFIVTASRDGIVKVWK
UniProt Q8NEB9: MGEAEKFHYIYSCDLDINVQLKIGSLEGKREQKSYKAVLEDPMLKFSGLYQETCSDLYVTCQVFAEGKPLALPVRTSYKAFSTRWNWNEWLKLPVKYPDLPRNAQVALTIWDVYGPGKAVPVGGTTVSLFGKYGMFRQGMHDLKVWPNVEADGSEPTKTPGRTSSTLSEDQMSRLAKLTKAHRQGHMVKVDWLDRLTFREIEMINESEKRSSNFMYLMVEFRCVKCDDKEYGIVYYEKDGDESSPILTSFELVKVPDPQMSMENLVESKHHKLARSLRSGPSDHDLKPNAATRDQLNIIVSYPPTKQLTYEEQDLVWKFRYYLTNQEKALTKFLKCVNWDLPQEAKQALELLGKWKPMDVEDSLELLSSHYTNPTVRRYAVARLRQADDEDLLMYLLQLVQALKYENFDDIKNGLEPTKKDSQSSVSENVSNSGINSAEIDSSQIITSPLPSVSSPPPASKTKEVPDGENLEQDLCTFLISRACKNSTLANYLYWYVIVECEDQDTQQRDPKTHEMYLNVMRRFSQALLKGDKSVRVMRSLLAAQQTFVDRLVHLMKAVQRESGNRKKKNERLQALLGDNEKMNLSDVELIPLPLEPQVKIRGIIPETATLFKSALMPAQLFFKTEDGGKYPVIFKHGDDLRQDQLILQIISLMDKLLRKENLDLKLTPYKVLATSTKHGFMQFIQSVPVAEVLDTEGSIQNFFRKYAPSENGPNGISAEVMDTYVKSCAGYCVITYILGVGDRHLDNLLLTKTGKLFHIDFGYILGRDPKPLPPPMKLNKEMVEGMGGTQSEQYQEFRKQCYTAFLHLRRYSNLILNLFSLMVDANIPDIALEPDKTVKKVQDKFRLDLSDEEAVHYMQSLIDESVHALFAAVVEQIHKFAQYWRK

These are yes or no findings as the source states them, for the method shown. Binding seen in cells or lysates may run through a third protein. Some binding calls cover weakened binding; strength is not graded here. For part of these data: Sequences can lack the tags named with a protein.

Assay [1] has as its target Vps15 (human (endogenous in HeLa)) (UniProt Q99570). Description: co-IP; endogenous proteins in HeLa lysates; precipitated with anti-Vps34, anti-Vps15 or anti-Ric-8A antibody and protein G-Sepharose, then immunoblotted; cells treated with PTX (200 ng/mL, 3 h) or vehicle in Figure 7E. A general note: In western blotting, separated proteins are transferred to a membrane and probed.

Assay [2] has as its target Vps34 (vacuolar protein-sorting 34) (human (endogenous in HeLa)) (UniProt Q8NEB9). The assay is described as above.
Assay [3] concerns the target T1, Ric-8A tagged with GFP or mCherry (separate copies, control for inter-molecular FRET), Q9NPQ8.
T1 chain: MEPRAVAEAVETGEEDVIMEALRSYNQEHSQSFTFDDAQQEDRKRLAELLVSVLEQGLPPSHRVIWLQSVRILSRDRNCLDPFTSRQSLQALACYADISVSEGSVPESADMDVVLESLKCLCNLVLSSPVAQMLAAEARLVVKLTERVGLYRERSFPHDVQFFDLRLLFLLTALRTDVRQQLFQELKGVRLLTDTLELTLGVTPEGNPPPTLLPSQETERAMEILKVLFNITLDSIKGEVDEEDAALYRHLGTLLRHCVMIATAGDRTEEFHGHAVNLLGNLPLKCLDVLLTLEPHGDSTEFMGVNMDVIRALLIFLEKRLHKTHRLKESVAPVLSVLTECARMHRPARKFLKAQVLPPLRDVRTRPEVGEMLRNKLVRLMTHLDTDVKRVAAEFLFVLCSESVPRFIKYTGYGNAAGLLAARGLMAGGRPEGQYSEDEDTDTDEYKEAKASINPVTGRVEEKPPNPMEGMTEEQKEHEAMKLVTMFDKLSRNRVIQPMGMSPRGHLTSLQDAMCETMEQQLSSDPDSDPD
The assay can be described thus: FRET or BRET; FRET by FLIM in live HeLa cells; GFP as donor and mCherry as acceptor on separate Ric-8A molecules (Figure S3A-B). The note with it: remark: other sources report otherwise. Background: BRET reads energy transfer from a luciferase to a nearby fluorophore.

Regarding “Resistance to inhibitors of cholinesterase (Ric)-8A (from UniProt Q9NPQ8-3 1-537)”, the binding result in assay [1] and in assay [2] was “binds” each time.

B1: Ric-8A tagged with GFP or mCherry (separate copies, control for inter-molecular FRET), Q9NPQ8 1-531 (protein)
chain: MEPRAVAEAVETGEEDVIMEALRSYNQEHSQSFTFDDAQQEDRKRLAELLVSVLEQGLPPSHRVIWLQSVRILSRDRNCLDPFTSRQSLQALACYADISVSEGSVPESADMDVVLESLKCLCNLVLSSPVAQMLAAEARLVVKLTERVGLYRERSFPHDVQFFDLRLLFLLTALRTDVRQQLFQELKGVRLLTDTLELTLGVTPEGNPPPTLLPSQETERAMEILKVLFNITLDSIKGEVDEEDAALYRHLGTLLRHCVMIATAGDRTEEFHGHAVNLLGNLPLKCLDVLLTLEPHGDSTEFMGVNMDVIRALLIFLEKRLHKTHRLKESVAPVLSVLTECARMHRPARKFLKAQVLPPLRDVRTRPEVGEMLRNKLVRLMTHLDTDVKRVAAEFLFVLCSESVPRFIKYTGYGNAAGLLAARGLMAGGRPEGQYSEDEDTDTDEYKEAKASINPVTGRVEEKPPNPMEGMTEEQKEHEAMKLVTMFDKLSRNRVIQPMGMSPRGHLTSLQDAMCETMEQQLSSDPDSDPD
As for B1, the binding result in assay [3] is listed as “no binding”.
